According to patent publication US6682545B1, “System and device for preventing restenosis in body vessels” (The Penn State Research Foundation, priority 1999, dated 2004):
Some entries share one result that the patent states for a list of compounds. For at least one compound, name, drawing or mass did not settle the structure.

Tested on: primary VSM isolated from rabbit carotid arteries
Assay: Apoptosis by fluorescence-activated cell sorting after propidium iodide staining
Format: cell-based
Conditions: 5 μM, either 24 or 40 hours
Description: Ceramide treatment correlated with growth arrest at G0G1and not apoptosis in these smooth muscle-like pericytes. […] Thus, the therapeutic efficacy of cell-perneable ceramide in restenosis includes its ability to arrest VSM growth without inducing significant apoptosis.

Compound	apoptotic cell death
CCCCCCCCCCCCCCC[C@@H](O)[C@H](CO)NC(=O)CCCCC [dihydro-C6-ceramide, reference compound]	less than 1%
CCCCCCCCCCCCC/C=C/[C@@H](O)[C@H](CO)NC(=O)CCCCC [C6-ceramide]	less than 1%
